Measured data: PubChem BioAssay AID504791 (Drosophila RNAi Screening Center, 2011)
The deposit covers about 23,000 reagents; this is an unselected part of those with a known target gene and a result. Of all reagents, 199 (0.86%) got an active call. 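Plate-scaled ratios behind the calls are not deposited; printed light signals are raw; many rows marked increased or decreased are still called inactive.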 Reagents against one gene are numbered here. Reagent sequences are not shown. The record does not give: the direction of the score.

- Assay: 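Factors in Argonaute-based small RNA production and activity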 (primary screen)
- Cells: Drosophila S2-derived reporter cells
- Reagents: long dsRNA against Drosophila genes, about 150-250 ng dsRNA per well (siRNA assay); about 80-120 ng (miRNA assay)
- Timing: about 5 days (siRNA assay); about 4 days (miRNA assay)
- Treatment: copper sulfate induction of reporters: 25 µM (siRNA assay); 200 mM stated (miRNA assay), 1-2 days before reading
- Measurement: 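Dual luciferase assay: Renilla to firefly signal ratio in each well, scaled to the mean ratio of its plate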
- Active means: 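a well was a first-pass pick when its plate-scaled ratio rose above 1.5 (siRNA assay) or 1.6 (miRNA assay), or dropped below 0.6; a gene counted only if two separate dsRNAs agreed on retest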

predicted target | dsRNA no. | stable siRNA reporter change | stable assay Renilla, run 1 (luminescence) | stable assay firefly, run 1 (luminescence) | Outcome
CG1632 | 1 | – | 4898 | 3.80e5 | inactive
CG1632 | 2 | – | 5704 | 3.72e5 | inactive
Hph | 1 | – | 11411 | 5.29e5 | inactive
Hph | 2 | – | 6120 | 2.96e5 | inactive
Tip60 | 1 | – | 6975 | 6.01e5 | inactive
CG14505 | 1 | – | 6423 | 3.15e5 | inactive
Tsp42Ei | 1 | – | 6188 | 3.69e5 | inactive
Miga | 1 | – | 5659 | 3.20e5 | inactive
ppk26 | 1 | – | 7162 | 4.70e5 | inactive
Drsl6 | 1 | – | 6331 | 3.93e5 | inactive
Osi2 | 1 | – | 6459 | 3.08e5 | inactive
HisT | 1 | – | 5376 | 4.55e5 | inactive
HisT | 2 | – | 5456 | 4.68e5 | inactive
HisT | 3 | – | 8406 | 5.40e5 | inactive
CG14926 | 1 | reporter ratio lowered past the hit cutoff | 7643 | 7.64e5 | inactive
Orai | 1 | – | 6027 | 3.56e5 | inactive
Orai | 2 | – | 9614 | 5.62e5 | inactive
CG32188 | 1 | – | 4986 | 3.76e5 | inactive
mia | 1 | – | 7602 | 3.89e5 | inactive
Cyp4e1 | 1 | – | 6146 | 3.51e5 | inactive

Sorted by “stable assay Renilla, run 1 (luminescence)” (high to low): some entries from above.
predicted target | dsRNA no. | stable siRNA reporter change | stable assay Renilla, run 1 (luminescence) | stable assay firefly, run 1 (luminescence) | Outcome
ppk26 | 1 | – | 7162 | 4.70e5 | inactive
Osi2 | 1 | – | 6459 | 3.08e5 | inactive
Drsl6 | 1 | – | 6331 | 3.93e5 | inactive
HisT | 1 | – | 5376 | 4.55e5 | inactive

The results go on.
predicted target | dsRNA no. | stable siRNA reporter change | stable assay Renilla, run 1 (luminescence) | stable assay firefly, run 1 (luminescence) | Outcome
Droj2 | 1 | – | 9054 | 4.91e5 | inactive
CG13558 | 1 | – | 6118 | 3.31e5 | inactive
CG10621 | 1 | – | 6807 | 3.99e5 | inactive
alphaCOP | 1 | – | 6159 | 1.95e5 | inactive
CG8087 | 1 | – | 6950 | 4.99e5 | inactive
CG16711 | 1 | – | 5772 | 3.85e5 | inactive
CG6073 | 1 | – | 5228 | 3.94e5 | inactive
CG6073 | 2 | – | 2948 | 2.72e5 | inactive
CG32655 | 1 | – | 5655 | 2.95e5 | inactive
Octbeta3R | 1 | – | 6379 | 3.43e5 | inactive
Octbeta3R | 2 | – | 6468 | 3.77e5 | inactive
Octbeta3R | 3 | – | 8351 | 6.12e5 | inactive
Octbeta3R | 4 | – | 8532 | 4.96e5 | inactive
Octbeta3R | 5 | – | 9742 | 7.12e5 | inactive
